Experimental data from patent US20030039641A1.
Results are given in words; binding and its absence hold for the method and conditions named. Some binding calls cover weakened binding; strength is not graded here. Where a sequence is shown, tags or fusion partners need not be part of it.

Protein sequences, listed by entry. Tags and fused reporters are not part of them. Residues count along the entry.
UniProt P12314, residues 16-292: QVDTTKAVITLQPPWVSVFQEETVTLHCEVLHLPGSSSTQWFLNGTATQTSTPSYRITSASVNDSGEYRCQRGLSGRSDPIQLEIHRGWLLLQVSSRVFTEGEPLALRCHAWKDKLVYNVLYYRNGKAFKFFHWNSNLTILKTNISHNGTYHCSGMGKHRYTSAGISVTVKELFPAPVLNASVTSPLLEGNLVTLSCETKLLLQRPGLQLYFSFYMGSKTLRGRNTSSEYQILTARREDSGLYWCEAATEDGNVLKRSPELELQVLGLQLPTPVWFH

Legend:
[1] = biological target: soluble form of FcγRI (UniProt P12314); assay: flow cytometry on pJG717-transformed 653 and NSO cells with soluble FcγRI
[2] = biological target: soluble form of FcγRI (UniProt P12314); assay: flow cytometry on pJG717-transformed tumor cells with soluble FcγRI

binding [1]: binds
binding [2]: binds
B1: H22-TM fusion protein (single chain Fv fragment of humanized anti-FcγRI antibody H22 fused to the platelet derived growth factor receptor transmembrane … (scFv)
chain: YPYDVPDYAGAQPARSDIQLTQSPSSLSASVGDRVTITCKSSQSVLYSSNQKNYLAWYQQKPGKAPKLLIYWASTRESGVPSRFSGSGSGTDFTFTISSLQPEDIATYYCHQYLSSWTFGQGTKVEIKSSGGGGSGGGGSGGGGSEVQLVESGGGVVQPGRSLRLSCSSSGFIFSDNYMYWVRQAPGKGLEWVATISDGGSYTYYPDSVKGRFTISRDNSKNTLFLQMDSLRPEDTGVYFCARGYYRYEGAMDYWGQGTPVTVSSPRLQVDEQKLISEEDLNAVGQDTQEVIVVPHSLPFKVVVISAILALVVLTIISLIILIMLWQKKPR
